Test results reported in patent US12668573B2 (Zhejiang Yangshengtang Institute of Natural Medication Co., …, priority 2018, dated 2026).

Experiment: general procedure: solution-phase peptide synthesis; HOBt, DIPEA
Conditions: conjugation step

Substance	conjugation yield [% yield]
Mf-C3-Val-Ala-PAB-MMAE	68
Mf-C6-Val-Cit-PAB-MMAE	56
Mm-C6-PEG4-Val-Ala-PAB-MMAE	63
Mm-C6-Val-Cit-PAB-MMAE	68
Mm-C6-Val-Ala-PAB-MMAE	75
Maa-C6-Val-Cit-PAB-MMAE	57
Maa-C6-Val-Ala-PAB-MMAE	57
Mm-C3-Val-Ala-PAB-MMAE	69
